For this experiment, the target named is Crimean-Congo haemorrhagic fever virus L-protein, full length, wild type (Orthonairovirus haemorrhagiae (Crimean-Congo haemorrhagic fever virus)) (UniProt Q6TQR6). Description: mass photometry; both purified.

Sequences of proteins named here, by UniProt entry; tags and fusion partners are left off.
UniProt Q6TQR6: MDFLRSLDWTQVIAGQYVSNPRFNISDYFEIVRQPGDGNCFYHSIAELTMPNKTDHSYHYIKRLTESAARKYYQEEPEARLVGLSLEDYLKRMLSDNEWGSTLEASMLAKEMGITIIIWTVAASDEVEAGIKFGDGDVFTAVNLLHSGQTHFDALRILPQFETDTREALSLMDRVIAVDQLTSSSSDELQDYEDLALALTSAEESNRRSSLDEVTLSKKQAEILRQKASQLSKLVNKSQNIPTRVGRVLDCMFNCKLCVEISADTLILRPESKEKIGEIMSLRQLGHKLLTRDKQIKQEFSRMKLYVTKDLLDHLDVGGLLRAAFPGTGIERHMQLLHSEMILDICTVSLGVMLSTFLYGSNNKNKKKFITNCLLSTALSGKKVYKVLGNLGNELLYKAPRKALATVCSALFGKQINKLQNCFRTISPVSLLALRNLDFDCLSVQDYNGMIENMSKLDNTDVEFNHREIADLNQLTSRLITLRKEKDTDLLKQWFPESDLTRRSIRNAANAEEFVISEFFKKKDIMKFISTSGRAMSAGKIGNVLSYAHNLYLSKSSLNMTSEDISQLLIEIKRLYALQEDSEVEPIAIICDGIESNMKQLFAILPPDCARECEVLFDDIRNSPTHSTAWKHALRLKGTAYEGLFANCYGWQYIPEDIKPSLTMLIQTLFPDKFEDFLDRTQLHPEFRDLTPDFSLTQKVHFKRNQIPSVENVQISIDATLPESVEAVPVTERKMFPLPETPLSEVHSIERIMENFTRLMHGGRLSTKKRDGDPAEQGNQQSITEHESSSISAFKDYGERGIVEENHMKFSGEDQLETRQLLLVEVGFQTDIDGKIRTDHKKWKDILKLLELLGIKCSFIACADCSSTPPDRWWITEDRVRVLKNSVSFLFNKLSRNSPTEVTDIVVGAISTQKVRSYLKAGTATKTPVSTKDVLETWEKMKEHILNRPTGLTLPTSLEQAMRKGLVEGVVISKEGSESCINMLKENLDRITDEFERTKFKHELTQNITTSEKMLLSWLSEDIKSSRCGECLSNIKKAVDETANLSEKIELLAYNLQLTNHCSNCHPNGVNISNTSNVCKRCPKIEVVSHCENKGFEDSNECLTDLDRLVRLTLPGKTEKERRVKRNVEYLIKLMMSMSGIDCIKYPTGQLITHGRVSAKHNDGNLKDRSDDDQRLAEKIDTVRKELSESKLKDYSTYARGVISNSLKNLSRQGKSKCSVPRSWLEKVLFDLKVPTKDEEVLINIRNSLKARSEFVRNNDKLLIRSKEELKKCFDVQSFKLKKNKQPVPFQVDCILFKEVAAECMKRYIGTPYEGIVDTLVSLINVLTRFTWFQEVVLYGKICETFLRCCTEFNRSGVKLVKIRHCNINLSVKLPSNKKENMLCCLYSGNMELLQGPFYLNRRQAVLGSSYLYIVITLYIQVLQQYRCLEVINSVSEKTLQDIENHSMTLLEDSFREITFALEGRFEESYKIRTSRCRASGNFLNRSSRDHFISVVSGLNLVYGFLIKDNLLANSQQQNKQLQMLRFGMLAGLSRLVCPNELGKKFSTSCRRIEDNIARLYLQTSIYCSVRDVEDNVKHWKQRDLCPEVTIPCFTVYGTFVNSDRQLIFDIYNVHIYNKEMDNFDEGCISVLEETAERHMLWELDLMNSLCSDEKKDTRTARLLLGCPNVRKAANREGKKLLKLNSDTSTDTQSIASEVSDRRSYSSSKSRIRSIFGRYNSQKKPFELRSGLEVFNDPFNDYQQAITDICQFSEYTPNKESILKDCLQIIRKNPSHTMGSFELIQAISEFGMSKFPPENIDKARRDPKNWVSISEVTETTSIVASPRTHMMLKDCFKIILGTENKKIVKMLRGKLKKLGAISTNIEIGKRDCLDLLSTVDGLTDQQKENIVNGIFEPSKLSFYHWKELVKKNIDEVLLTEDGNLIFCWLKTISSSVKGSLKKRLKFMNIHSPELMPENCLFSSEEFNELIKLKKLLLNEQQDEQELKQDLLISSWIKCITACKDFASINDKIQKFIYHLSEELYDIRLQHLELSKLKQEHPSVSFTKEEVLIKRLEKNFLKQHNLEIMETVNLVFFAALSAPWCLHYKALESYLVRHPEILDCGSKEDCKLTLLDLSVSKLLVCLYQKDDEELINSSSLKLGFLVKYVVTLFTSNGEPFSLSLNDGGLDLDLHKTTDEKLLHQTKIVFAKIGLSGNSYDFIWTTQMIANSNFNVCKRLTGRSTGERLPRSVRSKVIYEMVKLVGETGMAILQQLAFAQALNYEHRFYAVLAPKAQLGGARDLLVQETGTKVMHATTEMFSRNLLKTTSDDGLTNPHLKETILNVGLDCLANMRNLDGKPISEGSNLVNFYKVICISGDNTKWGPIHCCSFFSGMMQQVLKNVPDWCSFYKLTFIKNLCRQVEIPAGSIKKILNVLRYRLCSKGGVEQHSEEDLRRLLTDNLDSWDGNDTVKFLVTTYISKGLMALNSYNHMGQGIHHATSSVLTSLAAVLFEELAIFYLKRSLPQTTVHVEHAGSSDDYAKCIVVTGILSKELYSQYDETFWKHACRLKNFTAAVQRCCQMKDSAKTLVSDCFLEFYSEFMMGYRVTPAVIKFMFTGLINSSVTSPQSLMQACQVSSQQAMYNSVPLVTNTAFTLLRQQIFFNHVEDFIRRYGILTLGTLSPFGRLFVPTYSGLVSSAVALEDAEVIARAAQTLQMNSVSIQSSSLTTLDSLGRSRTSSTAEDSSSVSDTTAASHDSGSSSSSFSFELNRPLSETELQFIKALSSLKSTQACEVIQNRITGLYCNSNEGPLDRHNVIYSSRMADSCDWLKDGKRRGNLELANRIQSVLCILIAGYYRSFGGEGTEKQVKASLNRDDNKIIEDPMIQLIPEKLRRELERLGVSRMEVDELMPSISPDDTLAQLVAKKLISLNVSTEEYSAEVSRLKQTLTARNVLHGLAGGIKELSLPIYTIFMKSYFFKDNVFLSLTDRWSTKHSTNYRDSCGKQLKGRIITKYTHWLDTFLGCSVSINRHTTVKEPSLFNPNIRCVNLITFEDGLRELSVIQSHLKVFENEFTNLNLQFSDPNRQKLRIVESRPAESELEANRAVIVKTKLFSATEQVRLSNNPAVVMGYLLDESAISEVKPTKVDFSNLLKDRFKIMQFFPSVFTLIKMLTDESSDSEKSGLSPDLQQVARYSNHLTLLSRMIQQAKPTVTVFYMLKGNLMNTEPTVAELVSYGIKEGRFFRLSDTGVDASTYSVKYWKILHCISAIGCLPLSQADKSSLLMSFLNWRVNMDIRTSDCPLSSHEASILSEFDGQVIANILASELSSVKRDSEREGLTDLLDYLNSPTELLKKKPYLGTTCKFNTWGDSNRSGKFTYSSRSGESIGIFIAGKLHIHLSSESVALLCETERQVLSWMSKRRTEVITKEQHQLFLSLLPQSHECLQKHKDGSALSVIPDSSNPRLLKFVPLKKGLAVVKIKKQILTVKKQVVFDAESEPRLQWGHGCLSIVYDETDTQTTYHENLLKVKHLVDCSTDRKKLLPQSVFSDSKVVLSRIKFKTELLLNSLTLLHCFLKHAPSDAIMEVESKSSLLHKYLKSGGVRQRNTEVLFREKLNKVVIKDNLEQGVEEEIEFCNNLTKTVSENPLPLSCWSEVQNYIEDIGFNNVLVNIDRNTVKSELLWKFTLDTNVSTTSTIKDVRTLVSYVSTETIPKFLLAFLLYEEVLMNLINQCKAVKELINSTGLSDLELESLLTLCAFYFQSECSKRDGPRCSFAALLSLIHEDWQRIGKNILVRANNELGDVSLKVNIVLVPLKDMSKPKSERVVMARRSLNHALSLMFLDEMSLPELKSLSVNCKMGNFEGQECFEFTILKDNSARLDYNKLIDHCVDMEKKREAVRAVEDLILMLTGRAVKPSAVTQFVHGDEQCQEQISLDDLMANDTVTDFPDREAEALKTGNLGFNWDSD

These are yes or no findings as the source states them, for the method shown.

On to “Crimean-Congo haemorrhagic fever virus L-protein, full length, wild type (from UniProt Q6TQR6 1-3945) (enzyme)”, for which the binding entry is “no binding (tested: 0.01 mg/ml)”.

The record behind these values is publication PMC13402591.
